PubChem BioAssay AID602196 – INSERM – 2012
Assay: 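Genes whose knock-down alters cisplatin killing of lung cancer cells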. System: human A549 lung cancer cells. Knock-down reagent: siRNA pair against human genes. Time to read-out: 48 h transfection before cisplatin; time from cisplatin to read-out not stated. Challenge: cisplatin at a dose killing half of control-siRNA cells; exact dose and duration not given. Read-out: 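Cisplatin cell death as a shift from the 50% death seen with control siRNA; siRNAs toxic or growth-blocking alone scored 0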. Scale: two-siRNA summed score (-2 to +2): higher = both siRNAs protect from cisplatin killing; -2 means both sensitise; mean protection from cisplatin (shift in death) and protection from cisplatin (shift in death), siRNA C and protection from cisplatin (shift in death), siRNA D: higher = protection from cisplatin killing. Call rule: 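Each siRNA scores 0 if harmful alone by LDH or WST-1, otherwise +1 if it reduces and -1 if it increases cisplatin killing; a gene is active when both siRNAs agree (sum +2 or -2)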. Meaning of the calls: active = both siRNAs shift cisplatin killing the same way; inactive = no consistent shift, or siRNA harmful alone.
This is a random part of about 23,000 reagents. In the full data, 455 (2%) were called active. 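Active includes both protection and sensitisation; some change values fall well beyond the stated -50 to +50 range.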 No sequences are given here. Not stated in the record: the amount of reagent.

target gene,two-siRNA summed score (-2 to +2),mean protection from cisplatin (shift in death) (%),"protection from cisplatin (shift in death), siRNA C (%)","protection from cisplatin (shift in death), siRNA D (%)",activity call
SCRT1 (scratch family transcriptional repressor 1),0,-7.9,-6.6,-9.3,inactive
ARPC1B (actin related protein 2/3 complex subunit 1B),0,6.1,8.9,3.2,inactive
PIK3R1 (phosphoinositide-3-kinase regulatory subunit 1),0,4.1,2.8,5.4,inactive
LOC399832,0,-2.1,-1.6,-2.7,inactive
NCR2 (natural cytotoxicity triggering receptor 2),0,1.1,-4.6,6.8,inactive
PSG9 (pregnancy specific beta-1-glycoprotein 9),0,10.7,5.2,16.2,inactive
HOXA5 (homeobox A5),0,7,13.1,0.9,inactive
"NT5M (5',3'-nucleotidase, mitochondrial)",0,-1,3.9,-5.9,inactive
HOGA1 (4-hydroxy-2-oxoglutarate aldolase 1),0,2.3,-2.8,7.5,inactive
TTPA (alpha tocopherol transfer protein),0,16.1,29.7,2.4,inactive
LOC440277,1,14.9,11.5,18.4,inactive
GPR18 (G protein-coupled receptor 18),0,2.3,-8,12.7,inactive
ABCC6 (ATP binding cassette subfamily C member 6),0,-6.2,5.2,-17.6,inactive
LOC145780,0,13.3,6.4,20.2,inactive
UNC45A (unc-45 myosin chaperone A),0,17.2,19.6,14.8,inactive
SIK1 (salt inducible kinase 1),0,6.3,2.2,10.4,inactive
SGMS2 (sphingomyelin synthase 2),-1,-2,9.6,-13.7,inactive
XG (Xg glycoprotein (Xg blood group)),0,5.3,4.3,6.2,inactive
LOC440867 (retired record),1,6.3,-4.3,17,inactive
USP21 (ubiquitin specific peptidase 21),0,-3.3,-18.1,11.5,inactive
EVA1C (eva-1 homolog C),1,-0.8,13.3,-14.9,inactive
ANKRD22 (ankyrin repeat domain 22),1,10.7,10,11.4,inactive
DELEC1 (deleted in esophageal cancer 1),0,-9.2,-10.3,-8,inactive
CEP85L (centrosomal protein 85L),0,11.8,4.9,18.6,inactive
LOC440667,0,25.1,34.9,15.3,inactive
SLC2A11,-1,2.5,32.1,-27,inactive
RPL6 (ribosomal protein L6),0,21.4,19,23.8,inactive
CST3 (cystatin C),0,10.9,16.2,5.6,inactive
PLA2G2E (phospholipase A2 group IIE),0,4.2,10,-1.6,inactive
PAOX (polyamine oxidase),0,-2.7,-5.9,0.5,inactive
DIP2B (DIP2 acetate--CoA ligase B (putative)),0,-3.7,0.9,-8.4,inactive
ACTL7B (actin like 7B),1,10.4,-9,29.8,inactive
LOC402579,0,15.4,10.7,20.1,inactive
SIRT2 (sirtuin 2),0,-22,-17.6,-26.4,inactive
LOC124512,1,6.6,15.7,-2.5,inactive
"DMWD (DM1 locus, WD repeat containing)",0,2.1,12,-7.8,inactive
LOC399707,0,-1.6,-3.4,0.2,inactive
SLC13A3,0,3.5,17.1,-10.1,inactive
GLIS1 (GLIS family zinc finger 1),0,-4,-3.4,-4.6,inactive
B3GALT5-AS1 (B3GALT5 antisense RNA 1),0,1.3,1.1,1.5,inactive
LETM2,0,3.7,5.9,1.4,inactive
CNOT6L (CCR4-NOT transcription complex subunit 6 like),1,10.2,19.4,1,inactive
CDH20 (cadherin 20),-1,-19.6,-35.2,-4.1,inactive
LOC390999,0,14.6,6,23.2,inactive
HSD17B12 (hydroxysteroid 17-beta dehydrogenase 12),0,-4.4,-0.6,-8.1,inactive
HOXD10 (homeobox D10),0,-1,-5.7,3.7,inactive
NEK3 (NIMA related kinase 3),1,9.2,0.7,17.6,inactive
P3H1 (prolyl 3-hydroxylase 1),0,-3.7,8.7,-16.1,inactive
CBX6 (chromobox 6),0,4.2,4.2,4.3,inactive
S100G (S100 calcium binding protein G),1,11.4,14.6,8.3,inactive
ELK1 (ETS transcription factor ELK1),0,2.4,2.2,2.7,inactive
KLHL4 (kelch like family member 4),0,1.7,12.5,-9,inactive
PMVK (phosphomevalonate kinase),0,1.3,-0.6,3.1,inactive
INSIG1 (insulin induced gene 1),-1,-13,-2.7,-23.3,inactive
TTC7B (tetratricopeptide repeat domain 7B),1,7.7,20.7,-5.4,inactive
FMO5 (flavin containing dimethylaniline monoxygenase 5),0,-27,-11.4,-42.6,inactive
SIRT1 (sirtuin 1),0,-6.3,-5.1,-7.4,inactive
LOC340359,1,14.2,7.2,21.2,inactive
CYP4Z1 (cytochrome P450 family 4 subfamily Z member 1),0,2.1,-1.7,5.8,inactive
LOC440510,1,13,9,17.1,inactive
TRIM65 (tripartite motif containing 65),1,15.2,8.4,22.1,inactive
TSPEAR (thrombospondin type laminin G domain and EAR repeats),0,1.7,5,-1.7,inactive
PPP1R1C (protein phosphatase 1 regulatory inhibitor subunit 1C),1,13.6,9.3,17.9,inactive
LOC441020,1,6.9,13.1,0.6,inactive
ZYX (zyxin),0,2.8,4.8,0.8,inactive
FAM174A (family with sequence similarity 174 member A),0,3.1,12.8,-6.7,inactive
LOC402196,0,0,4.4,-4.4,inactive
SPATA21 (spermatogenesis associated 21),0,10.8,11.9,9.6,inactive
AKAP8L (A-kinase anchoring protein 8 like),0,2.2,11.9,-7.6,inactive
LOC116412,0,12,18.7,5.3,inactive
CCDC71 (coiled-coil domain containing 71),0,7.6,1.8,13.3,inactive
CYP26A1 (cytochrome P450 family 26 subfamily A member 1),-1,-20.9,-16.7,-25.1,inactive
SPACA9 (sperm acrosome associated 9),0,1.2,-2.7,5.1,inactive

Entries above whose target name begins with C or c (8):
target gene,two-siRNA summed score (-2 to +2),mean protection from cisplatin (shift in death) (%),"protection from cisplatin (shift in death), siRNA C (%)","protection from cisplatin (shift in death), siRNA D (%)",activity call
CEP85L (centrosomal protein 85L),0,11.8,4.9,18.6,inactive
CST3 (cystatin C),0,10.9,16.2,5.6,inactive
CNOT6L (CCR4-NOT transcription complex subunit 6 like),1,10.2,19.4,1,inactive
CDH20 (cadherin 20),-1,-19.6,-35.2,-4.1,inactive
CBX6 (chromobox 6),0,4.2,4.2,4.3,inactive
CYP4Z1 (cytochrome P450 family 4 subfamily Z member 1),0,2.1,-1.7,5.8,inactive
CCDC71 (coiled-coil domain containing 71),0,7.6,1.8,13.3,inactive
CYP26A1 (cytochrome P450 family 26 subfamily A member 1),-1,-20.9,-16.7,-25.1,inactive
